Reference: publication PMC6152987
The exact form of at least one protein or probe is not confirmed. No signal at the amounts used counts as a negative.

Test system: GST-CBF-1Δ(187-214) (Neurospora crassa)
Experiment: EMSA
Settings: poly(dI-dC); 20 mM HEPES pH 7.9, 1 mM EDTA, 2 mM MgCl2, 10% glycerol, 20 uM ZnCl2, 0.1 ug poly(dI-dC), 3 ug protein in 20 uL, 30 min on ice; 4% native PAGE, 0.5x TBE, 4 C; recombinant protein; protein details: GST (N-terminal, pGEX-4T-1); label: 32P (5' by T4 PNK)

## CGTCCTGATGCCGCTGCAAGACCGATGACGCTGCAAAATTGAGATCTA (double strand) [frq C-box probe (ACF57/ACF58)]
  binding result: no binding
